Laboratory results published in patent publication US7893056B2, “Peptide deformylase inhibitors” (GlaxoSmithKline LLC, priority 2007, dated 2011).
Some of these results come from one statement about several compounds together.

Assays:
[1] = biological target: T1, Staphylococcus aureus PDF (SaPDF) (Staphylococcus aureus, UniProt P68826); test: PDF IC50 assay (FDH-coupled), S. aureus PDF; type: biochemical; settings: read-out: IC50, inhibition of S. aureus PDF activity
T1 sequence (P68826 1-183): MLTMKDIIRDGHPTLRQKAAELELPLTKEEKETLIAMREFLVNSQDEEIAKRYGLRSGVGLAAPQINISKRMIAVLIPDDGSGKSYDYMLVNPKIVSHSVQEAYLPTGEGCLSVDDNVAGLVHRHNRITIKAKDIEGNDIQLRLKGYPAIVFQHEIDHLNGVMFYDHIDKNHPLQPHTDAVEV

[2] = biological target: T2, Streptococcus pneumoniae PDF (Streptococcus pneumoniae serotype 4, UniProt Q9F2F0); test: PDF IC50 assay (FDH-coupled), S. pneumoniae PDF; type: biochemical; settings: read-out: IC50, inhibition of S. pneumoniae PDF activity
T2 sequence (Q9F2F0 1-203): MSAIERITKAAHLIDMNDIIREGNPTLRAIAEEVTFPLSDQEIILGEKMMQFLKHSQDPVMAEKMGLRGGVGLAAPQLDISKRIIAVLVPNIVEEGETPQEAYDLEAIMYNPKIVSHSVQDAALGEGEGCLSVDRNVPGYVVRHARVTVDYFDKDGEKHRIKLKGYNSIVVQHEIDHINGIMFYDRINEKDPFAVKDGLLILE

CCc1nc(NNC(=O)[C@H](CC2CCCC2)CN(O)C=O)c(F)c(N2CCN(CC)CC2)n1 [Example 32, N-[(2R)-2-(Cyclopentylmethyl)-3-{2-[2-ethyl-6-(4-ethyl-1-piperazinyl)-5-fluoro-4-pyrimidinyl]hydrazino}-3-oxopropyl]-N-hydroxyformamide]
IC50 [1]: ≤ 100 nM
IC50 [2]: ≤ 100 nM

Cc1nc(NNC(=O)[C@H](CC2CCCC2)CN(O)C=O)c(F)c(N2CCN(C)C[C@H]2C)n1 [Example 109, [(2R)-2-(Cyclopentylmethyl)-3-(2-{6-[(2R)-2,4-dimethyl-1-piperazinyl]-5-fluoro-2-methyl-4-pyrimidinyl}hydrazino)-3-oxopropyl]hydroxyformamide]
IC50 [1]: ≤ 100 nM
IC50 [2]: ≤ 100 nM

O=CN(O)C[C@@H](CC1CCCC1)C(=O)NNc1nc(Cl)nc(N2CCC[C@H]2Cn2nnc3cccnc32)c1F [Example 279, [(2R)-3-(2-{2-Chloro-5-fluoro-6-[(2S)-2-(3H-[1,2,3]triazolo[4,5-b]pyridin-3-ylmethyl)-1-pyrrolidinyl]-4-pyrimidinyl}hydrazino)-2-(cyclopentylmethyl)-3-oxopropyl]hydroxyformamide]
IC50 [1]: ≤ 100 nM
IC50 [2]: ≤ 100 nM

Cc1nc(NNC(=O)[C@H](CC2CCCC2)CN(O)C=O)c(F)c(N2CCC2)n1 [Example 9, [(2R)-3-{2-[6-(1-Azetidinyl)-5-fluoro-2-methyl-4-pyrimidinyl]hydrazino}-2-(cyclopentylmethyl)-3-oxopropyl]hydroxyformamide]
IC50 [1]: ≤ 100 nM
IC50 [2]: ≤ 100 nM

CCc1nc(NNC(=O)[C@H](CC2CCCC2)CN(O)C=O)c(F)c(N2CCN(C)[C@@H](C)C2)n1 [Example 40, N-[(2R)-2-(Cyclopentylmethyl)-3-(2-{6-[(3S)-3,4-dimethyl-1-piperazinyl]-2-ethyl-5-fluoro-4-pyrimidinyl}hydrazino)-3-oxopropyl]-N-hydroxyformamide]
IC50 [1]: ≤ 100 nM
IC50 [2]: ≤ 100 nM

CN(C)C1([C@@H]2CCCN2c2nc(Cl)nc(NNC(=O)[C@H](CC3CCCC3)CN(O)C=O)c2F)CC1 [Example 189, [(2R)-3-[2-(2-Chloro-6-{(2S)-2-[1-(dimethylamino)cyclopropyl]-1-pyrrolidinyl}-5-fluoro-4-pyrimidinyl)hydrazino]-2-(cyclopentylmethyl)-3-oxopropyl]hydroxyformamide]
IC50 [1]: ≤ 100 nM
IC50 [2]: ≤ 100 nM

CCc1nc(NNC(=O)[C@H](CC2CCCC2)CN(O)C=O)c(F)c(N2CC[C@@H](N(C)C)C2)n1 [Example 27, N-[(2R)-2-(Cyclopentylmethyl)-3-(2-{6-[(3R)-3-(dimethylamino)-1-pyrrolidinyl]-2-ethyl-5-fluoro-4-pyrimidinyl}hydrazino)-3-oxopropyl]-N-hydroxyformamide]
IC50 [1]: ≤ 100 nM
IC50 [2]: ≤ 100 nM

CN(C)C[C@@H]1CCCN1c1nc(Cl)nc(NNC(=O)[C@H](CC2CCCC2)CN(O)C=O)c1F [Example 232, [(2R)-3-[2-(2-Chloro-6-{(2S)-2-[(dimethylamino)methyl]-1-pyrrolidinyl}-5-fluoro-4-pyrimidinyl)hydrazino]-2-(cyclopentylmethyl)-3-oxopropyl]hydroxyformamide]
IC50 [1]: ≤ 100 nM
IC50 [2]: ≤ 100 nM

C[C@@H]1CN(c2nc(Cl)nc(NNC(=O)[C@H](CC3CCCC3)CN(O)C=O)c2F)C[C@@H]1N(C)C (single isomer, unassigned) [Example 122]
IC50 [1]: ≤ 100 nM
IC50 [2]: ≤ 100 nM

Cc1nc(NNC(=O)[C@H](CC2CCCC2)CN(O)C=O)c(F)c(N[C@H](C)C(=O)N(C)C)n1 [Example 74, N2-(6-{2-[(2R)-3-Cyclopentyl-2-{[formyl(hydroxy)amino]methyl}propanoyl]hydrazino}-5-fluoro-2-methyl-4-pyrimidinyl)-N,N-dimethyl-D-alaninamide]
IC50 [1]: ≤ 100 nM
IC50 [2]: ≤ 100 nM

Cc1nc(NNC(=O)[C@H](CC2CCCC2)CN(O)C=O)c(F)c(N2CCN(C)[C@H](C)[C@H]2C)n1 [Example 203, N-[(2R)-2-(Cyclopentylmethyl)-3-(2-{5-fluoro-2-methyl-6-[(2R,3R)-2,3,4-trimethyl-1-piperazinyl]-4-pyrimidinyl}hydrazino)-3-oxopropyl]-N-hydroxyformamide]
IC50 [1]: ≤ 100 nM
IC50 [2]: ≤ 100 nM

CCN(CC)C[C@@H]1CCCN1c1nc(C)nc(NNC(=O)[C@H](CC2CCCC2)CN(O)C=O)c1F [Example 254, {(2R)-2-(Cyclopentylmethyl)-3-[2-(6-{(2S)-2-[(diethylamino)methyl]-1-pyrrolidinyl}-5-fluoro-2-methyl-4-pyrimidinyl)hydrazino]-3-oxopropyl}hydroxyformamide]
IC50 [1]: ≤ 100 nM
IC50 [2]: ≤ 100 nM

C[C@@H]1CN(c2nc(Cl)nc(NNC(=O)[C@H](CC3CCCC3)CN(O)C=O)c2F)C[C@H](C)N1C [Example 145, N-[(2R)-3-(2-{2-Chloro-5-fluoro-6-[(3R,5S)-3,4,5-trimethyl-1-piperazinyl]-4-pyrimidinyl}hydrazino)-2-(cyclopentylmethyl)-3-oxopropyl]-N-hydroxyformamide]
IC50 [1]: ≤ 100 nM
IC50 [2]: ≤ 100 nM

CC1(C)CN(c2nc(Cl)nc(NNC(=O)[C@H](CC3CCCC3)CN(O)C=O)c2F)C[C@H]1O [Example 115, [(2R)-3-(2-{2-Chloro-5-fluoro-6-[(4S)-4-hydroxy-3,3-dimethyl-1-pyrrolidinyl]-4-pyrimidinyl}hydrazino)-2-(cyclopentylmethyl)-3-oxopropyl]hydroxyformamide]
IC50 [1]: ≤ 100 nM
IC50 [2]: ≤ 100 nM

C[C@H]1CN(c2nc(Cl)nc(NNC(=O)[C@H](CC3CCCC3)CN(O)C=O)c2F)C[C@H](C)N1C [Example 242, N-[(2R)-3-(2-{2-Chloro-5-fluoro-6-[(3S,5S)-3,4,5-trimethyl-1-piperazinyl]-4-pyrimidinyl}hydrazino)-2-(cyclopentylmethyl)-3-oxopropyl]-N-hydroxyformamide]
IC50 [1]: ≤ 100 nM
IC50 [2]: ≤ 100 nM

CCCN(C)C[C@@H]1CCCN1c1nc(Cl)nc(NNC(=O)[C@H](CC2CCCC2)CN(O)C=O)c1F [Example 272, [(2R)-3-{2-[2-Chloro-5-fluoro-6-((2S)-2-{[methyl(propyl)amino]methyl}-1-pyrrolidinyl)-4-pyrimidinyl]hydrazino}-2-(cyclopentylmethyl)-3-oxopropyl]hydroxyformamide]
IC50 [1]: ≤ 100 nM
IC50 [2]: ≤ 100 nM

CN(C)C1CN(c2nc(Cl)nc(NNC(=O)[C@H](CC3CCCC3)CN(O)C=O)c2F)C(C)(C)C1 (single isomer, unassigned) [Example 195]
IC50 [1]: ≤ 100 nM
IC50 [2]: ≤ 100 nM

CC[C@@H]1CN(c2nc(C)nc(NNC(=O)[C@H](CC3CCCC3)CN(O)C=O)c2F)[C@H](C)CN1C [Example 262, N-[(2R)-2-(Cyclopentylmethyl)-3-(2-{6-[(2R,5R)-5-ethyl-2,4-dimethyl-1-piperazinyl]-5-fluoro-2-methyl-4-pyrimidinyl}hydrazino)-3-oxopropyl]-N-hydroxyformamide]
IC50 [1]: ≤ 100 nM
IC50 [2]: ≤ 100 nM

CO[C@H]1CCN(c2nc(C)nc(NNC(=O)[C@H](CC3CCCC3)CN(O)C=O)c2F)C1 [Example 15, [(2R)-2-(Cyclopentylmethyl)-3-(2-{5-fluoro-2-methyl-6-[(3S)-3-(methyloxy)-1-pyrrolidinyl]-4-pyrimidinyl}hydrazino)-3-oxopropyl]hydroxyformamide]
IC50 [1]: ≤ 100 nM
IC50 [2]: ≤ 100 nM

Cc1nc(NNC(=O)[C@H](CC2CCCC2)CN(O)C=O)c(F)c(N2CCCC[C@H]2CO)n1 [Example 258, [(2R)-2-(Cyclopentylmethyl)-3-(2-{5-fluoro-6-[(2S)-2-(hydroxymethyl)-1-piperidinyl]-2-methyl-4-pyrimidinyl}hydrazino)-3-oxopropyl]hydroxyformamide]
IC50 [1]: ≤ 100 nM
IC50 [2]: ≤ 100 nM

O=CN(O)C[C@@H](CC1CCCC1)C(=O)NNc1nc(Cl)nc(NCCc2ccco2)c1F [Example 280, [(2R)-3-[2-(2-Chloro-5-fluoro-6-{[2-(2-furanyl)ethyl]amino}-4-pyrimidinyl)hydrazino]-2-(cyclopentylmethyl)-3-oxopropyl]hydroxyformamide]
IC50 [1]: ≤ 100 nM
IC50 [2]: ≤ 100 nM

Cc1nc(NNC(=O)[C@H](CC2CCCC2)CN(O)C=O)c(F)c(N2CCN(C)[C@@H](C)[C@H]2C)n1 [Example 181, N-[(2R)-2-(Cyclopentylmethyl)-3-(2-{5-fluoro-2-methyl-6-[(2R,3S)-2,3,4-trimethyl-1-piperazinyl]-4-pyrimidinyl}hydrazino)-3-oxopropyl]-N-hydroxyformamide]
IC50 [1]: ≤ 100 nM
IC50 [2]: ≤ 100 nM

C[C@H]1CN(C)CCN1c1nc(Cl)nc(NNC(=O)[C@H](CC2CCCC2)CN(O)C=O)c1F [Example 64, [(2R)-3-(2-{2-Chloro-6-[(2S)-2,4-dimethyl-1-piperazinyl]-5-fluoro-4-pyrimidinyl}hydrazino)-2-(cyclopentylmethyl)-3-oxopropyl]hydroxyformamide]
IC50 [1]: ≤ 100 nM
IC50 [2]: ≤ 100 nM

Cc1nc(NNC(=O)[C@H](CC2CCCC2)CN(O)C=O)c(F)c(N2CCN(C)[C@H](C)C2)n1 [Example 98, [(2R)-2-(Cyclopentylmethyl)-3-(2-{6-[(3R)-3,4-dimethyl-1-piperazinyl]-5-fluoro-2-methyl-4-pyrimidinyl}hydrazino)-3-oxopropyl]hydroxyformamide]
IC50 [1]: ≤ 100 nM
IC50 [2]: ≤ 100 nM

Cc1nc(NNC(=O)[C@H](CC2CCCC2)CN(O)C=O)c(F)c(N2CCC2C)n1 (mixture of isomers) [Example 265, ((2R)-2-(Cyclopentylmethyl)-3-{2-[5-fluoro-2-methyl-6-(2-methyl-1-azetidinyl)-4-pyrimidinyl]hydrazino}-3-oxopropyl)hydroxyformamide]
IC50 [1]: ≤ 100 nM
IC50 [2]: ≤ 100 nM
